According to US20240189358A1:
No constants are given. Whether binding was seen depends on the method and setting. Some entries that bind do so weakly or less than the wild type.

Chains of the proteins cited; added tags and fusions are not shown. Lines headed by an entry give the natural chain unless they say otherwise; changes in a name come on top.
UniProt P10747: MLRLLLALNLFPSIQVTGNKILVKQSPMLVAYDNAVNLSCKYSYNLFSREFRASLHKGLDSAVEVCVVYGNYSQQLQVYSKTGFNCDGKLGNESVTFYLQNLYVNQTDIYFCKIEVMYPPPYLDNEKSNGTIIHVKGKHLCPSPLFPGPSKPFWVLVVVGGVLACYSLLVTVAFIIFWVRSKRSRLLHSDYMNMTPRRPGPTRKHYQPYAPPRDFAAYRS

Target: T1, mouse uPAR (mouse) (UniProt P35456)
T1 sequence (looked up): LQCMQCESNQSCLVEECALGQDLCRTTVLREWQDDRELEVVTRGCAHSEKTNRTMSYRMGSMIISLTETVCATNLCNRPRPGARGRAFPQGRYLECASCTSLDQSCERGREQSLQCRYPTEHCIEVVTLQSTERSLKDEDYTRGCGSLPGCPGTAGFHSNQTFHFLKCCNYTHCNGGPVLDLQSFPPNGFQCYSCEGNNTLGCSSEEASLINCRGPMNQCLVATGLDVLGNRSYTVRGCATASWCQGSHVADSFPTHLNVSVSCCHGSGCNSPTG
Experiment: flow cytometry on NALM6 and Eµ-ALL01 cells engineered to overexpress mouse uPAR, against wild type cells

binding: binds
Substance: m.uPAR-h.28z chimeric antigen receptor (human SFG-m.uPAR-h28z CAR) (from UniProt P10747 114-220; P20963 52-163)
